Data set [1] can be described thus: Description of odour of single fragrance substances (olfactory evaluation). Particulars: for Description of odour: alcohol according to the invention.
For data set [2] the following is noted: structurally similar alcohols and known aldehydes; source Arctander / Bauer, Garbe, Surburg; cited from earlier work.

Read-outs that look alike come from different tables or passages of the source.

As for `CC(CO)C1CC=CCC1` (centres unmarked), the odour entry in data set [1] (purified form (purity>95 wt. %)) is “flowery, rosy and fatty odour”.

On to `OCCCC1CC=CCC1` (centres unmarked) [3-cyclohexenyl-1-propanol], for which the after-odour notes entry in data set [1] (after-odour) is listed as “rosy, fruity, damascenone-like”. Also, the Description of odour entry is recorded as “hydrocinnamic alcohol-like, mushroom-like, hay-like, cinnamon-like, balsamic, flowery” in data set [1] and “hydrocinnamic alcohol, mushroom- like, hay, balsamic, rosalva, rosy, phenylethyl alcohol, cinnamon, styrax, sweet, flowery” in data set [1] (listed as Cyclohexenylpropanol).

Consider `O=C/C=C/c1ccccc1` [Cinnamaldehyde], for which the Description of odour entry in data set [2] is “cinnamon, spicy, aromatic, clove, sweet, cassia”.

For the molecule `OC/C=C/c1ccccc1` [Cinnamic alcohol], the Description of odour result in data set [2] is on record as “sweet, balsamic, flowery, hyacinths, rose aspects”.

On to `O=CCCc1ccccc1` [Dihydrocinnamaldehyde], for which the Description of odour entry in data set [2] was “hyacinths, earthy, warm, cherries, cinnamon, plums”.

For the molecule `OCCCc1ccccc1` [Dihydrocinnamic alcohol], the Description of odour result in data set [2] was “sweet, balsamic, hyacinths, flowery, warm and mild”.
